Reference: the supplement of paper PMC4635364
The other results are listed elsewhere or left out. Repeats in this data set agree poorly, so a single value says little.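 Cells: ReNCell VM human fetal ventral-midbrain neural progenitors, differentiated mitogen-free. Blinded raters compared doublecortin-stained (early neurons) or tyrosine hydroxylase-stained (dopaminergic neurons) images with untreated wells, where 0 means no change. After repeats and both raters were averaged, compounds scoring 2 or above became hits for retesting.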

Test system: ReNCell VM
Test: dopaminergic neuron differentiation score (TH+ cell fraction vs untreated, manual image score) (score (0 to 3)); higher = more TH+ dopaminergic neuron differentiation
Conditions: library: Spectrum; 2 uM; 4 weeks; BDNF 10 ng/ml + GDNF 10 ng/ml

Dopaminergic neuron differentiation score, inactive:
NS(=O)(=O)c1cc2c(cc1Cl)N=C(CSCc1ccccc1)NS2(=O)=O 0
COc1cccc2c1C(=O)c1c(O)c3c(c(O)c1C2=O)C[C@@](O)(C(=O)CO)C[C@@H]3O[C@H]1C[C@H](N)[C@H](O)[C@H](C)O1 0
O=C(c1ccc(OCCN2CCCCC2)cc1)c1c(-c2ccc(O)cc2)sc2cc(O)ccc12 0
CC(=O)Oc1cc(C(C)C)c(OCCN(C)C)cc1C 0
CC1(C)CC2C1CCC1(C)OC2(C)CCC1O (centres undefined) 0
CC(=O)[C@H]1CC[C@H]2[C@@H]3C=CC4=CC(=O)CC[C@@]4(C)[C@@H]3CC[C@]12C 0
C[C@@H](O)[C@H]1C(=O)N2C(C(=O)O)=C(S[C@@H]3CN[C@H](C(=O)N(C)C)C3)[C@H](C)[C@H]12 0
CC(=O)OCC(=O)[C@H]1CC[C@H]2[C@@H]3CCC4=CC(=O)CC[C@]4(C)[C@H]3CC[C@]12C 0
COc1ccc2c(=O)c(CC(=O)O)coc2c1 1
CC(=O)OCC(=O)[C@@]1(O)CC[C@H]2[C@@H]3CCC4=CC(=O)C=C[C@]4(C)[C@@]3(F)[C@@H](O)C[C@@]21C 0
C[C@]12C=CC(=O)C=C1CC[C@@H]1[C@@H]2[C@@H](O)C[C@@]2(C)[C@H]1CC[C@]2(O)C(=O)COC(=O)CCC(=O)O 0
O=C(O)c1cc(O)c(O)c(O)c1 0
C=CCOC(Cn1ccnc1)c1ccc(Cl)cc1Cl (centres undefined) 0
CN(C)CCOC(c1ccc(Cl)cc1)c1ccccn1 (centres undefined) 0
